Literature values in patent publication US20150144521A1, “STORAGE AIDS COMPRISING PLANT PROTECTANTS AND THEIR USE” (priority 2012, published 2015).
Some entries share one result that the patent states for a list of compounds.

Settings: Parochetti et al.; cited from earlier work

Compound	observed volatility from an air-dried soil [μg/cm^2]
CC(C)OC(=O)Nc1cccc(Cl)c1 [CIPC, isopropyl-N-(m-chlorophenyl)-carbamate]	< 1
CC(C)OC(=O)Nc1ccccc1 [IPC, isopropyl-N-phenyl carbamate]	< 1
